The source of these data is publication PMC5996148.

The chains behind the UniProt entries cited, without tags or fusion partners. Where a name states a change or a piece, a line headed by the entry shows the natural chain unless it says otherwise.
UniProt Q9NQ60: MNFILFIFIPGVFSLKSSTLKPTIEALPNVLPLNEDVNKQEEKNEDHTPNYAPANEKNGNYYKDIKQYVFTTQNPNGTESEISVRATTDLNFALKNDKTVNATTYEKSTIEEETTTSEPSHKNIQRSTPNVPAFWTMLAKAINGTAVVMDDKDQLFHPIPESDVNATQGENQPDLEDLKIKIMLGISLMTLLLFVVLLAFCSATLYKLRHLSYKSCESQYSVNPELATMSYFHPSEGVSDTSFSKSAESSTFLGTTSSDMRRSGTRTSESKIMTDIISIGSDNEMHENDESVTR

“And” between values parts separate entries of the source, which are not always exact repeats. Equal entries are not always repeated. The list shows a part of the results. For some of these results: The source does not settle which construct or isoform was used.

Some test systems named below: C8A (human); C8G (human); C8orf43 (human); C8orf47 (human); C8orf76 (human); C9orf105 (human); C9orf148 (human); C9orf46 (human); C9orf58 (human).
Common to all, as to experiment: protein microarray (ProtoArray v5.0), streptavidin-Alexa Fluor 647
Holding throughout (conditions): 3'-biotin; 20 mM Tris (pH 7.5), 5 mM MgCl2, 100 mM KCl, 0.1% Tween-20, A/T-rich and random oligonucleotide blockers; temperature not stated; high values mean tight binding

A further assay deals with C9orf11 (UniProt Q9NQ60).

As to “GGGAGGCTGAGGCAGG [G4-1 biotinylated (PQS2)]”, the binding signal in the assay with C8A (human) was -0.319 z-score; with C8G (human) it was -0.337 z-score; in the assay with C8orf43 (human) it was -0.357 z-score; with C8orf47 (human), -0.363 z-score; in the assay with C8orf76 (human), -0.302 z-score and -0.274 z-score; with C9orf105 (human) it was -0.294 z-score. Also, the binding signal was -0.238 z-score with C9orf11, -0.328 z-score with C9orf148 (human), -0.307 z-score in the assay with C9orf46 (human) and -0.305 z-score with C9orf58 (human).
